# Measured values taken from patent publication EP0437487B1, “[…]” (CANCER RESEARCH CAMPAIGN TECHNOLOGY LIMITED, priority 1988, dated 1990).
# Part of at least one peptide drawing is inferred or uncertain, most often the ends.
# Assay: Thin-layer chromatography of indium binding to the peptide (silica gel, double ascent system)
# Type: physicochemical
# Details: 111In-labelled peptide in citrate buffer
smiles,measurement,setting,value
"CSCC[C@H](NC(=O)[C@H](CO)NC(=O)[C@H](Cc1ccc(O)cc1)NC(=O)[C@H](CO)NC(=O)CN(CCN(CCN(CC(=O)O)CC(=O)N[C@@H](CO)C(=O)N[C@@H](Cc1ccc(O)cc1)C(=O)N[C@@H](CO)C(=O)N[C@@H](CCSC)C(=O)N[C@@H](CCC(=O)O)C(=O)N[C@@H](Cc1c[nH]cn1)C(=O)N[C@@H](Cc1ccccc1)C(=O)N[C@@H](CCCNC(=N)N)C(=O)N[C@@H](Cc1c[nH]c2ccccc12)C(=O)NCC(=O)N[C@@H](CCCCN)C(=O)N1CCC[C@H]1C(=O)N[C@H](C(N)=O)C(C)C)CC(=O)O)CC(=O)O)C(=O)N[C@@H](CCC(=O)O)C(=O)N[C@@H](Cc1c[nH]cn1)C(=O)N[C@@H](Cc1ccccc1)C(=O)N[C@@H](CCCNC(=N)N)C(=O)N[C@@H](Cc1c[nH]c2ccccc12)C(=O)NCC(=O)N[C@@H](CCCCN)C(=O)N1CCC[C@H]1C(=O)N[C@H](C(N)=O)C(C)C [Example 2MSH-DTPA, 2MSH-DTPA]",radioactivity located at the solvent front,after standing for 5h at 18°C,100%
same,radioactivity located at the solvent front,analysed immediately after the addition of indium,100%
